Data as given in article PMC5385539.
No constants are given. Whether binding was seen depends on the method and setting. Binding seen in cells or lysates may run through a third protein. Some binding calls cover weakened binding; strength is not graded here. Where a sequence is shown, tags or fusion partners need not be part of it.

Sequences of proteins named here, by UniProt entry; tags and fusion partners are left off.
UniProt Q80U70: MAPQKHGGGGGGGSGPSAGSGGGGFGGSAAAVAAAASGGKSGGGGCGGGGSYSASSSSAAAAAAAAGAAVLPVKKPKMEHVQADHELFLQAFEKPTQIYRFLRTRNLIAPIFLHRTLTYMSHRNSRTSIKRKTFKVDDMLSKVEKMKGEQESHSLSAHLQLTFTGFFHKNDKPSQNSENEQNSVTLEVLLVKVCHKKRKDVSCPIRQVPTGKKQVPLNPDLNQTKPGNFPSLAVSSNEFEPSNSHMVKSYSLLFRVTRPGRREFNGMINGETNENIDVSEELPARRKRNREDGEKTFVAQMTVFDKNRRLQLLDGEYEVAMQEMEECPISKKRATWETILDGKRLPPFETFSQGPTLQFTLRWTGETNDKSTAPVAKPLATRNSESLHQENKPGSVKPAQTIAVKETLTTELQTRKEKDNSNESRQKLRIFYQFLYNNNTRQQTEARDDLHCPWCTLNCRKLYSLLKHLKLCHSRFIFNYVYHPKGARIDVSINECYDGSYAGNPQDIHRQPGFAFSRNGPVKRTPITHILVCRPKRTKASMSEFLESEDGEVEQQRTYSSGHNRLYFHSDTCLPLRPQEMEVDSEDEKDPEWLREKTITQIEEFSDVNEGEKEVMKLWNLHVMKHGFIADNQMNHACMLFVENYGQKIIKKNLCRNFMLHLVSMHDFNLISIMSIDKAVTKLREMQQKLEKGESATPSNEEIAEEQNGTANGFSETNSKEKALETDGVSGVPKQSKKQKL
UniProt Q8CGN4: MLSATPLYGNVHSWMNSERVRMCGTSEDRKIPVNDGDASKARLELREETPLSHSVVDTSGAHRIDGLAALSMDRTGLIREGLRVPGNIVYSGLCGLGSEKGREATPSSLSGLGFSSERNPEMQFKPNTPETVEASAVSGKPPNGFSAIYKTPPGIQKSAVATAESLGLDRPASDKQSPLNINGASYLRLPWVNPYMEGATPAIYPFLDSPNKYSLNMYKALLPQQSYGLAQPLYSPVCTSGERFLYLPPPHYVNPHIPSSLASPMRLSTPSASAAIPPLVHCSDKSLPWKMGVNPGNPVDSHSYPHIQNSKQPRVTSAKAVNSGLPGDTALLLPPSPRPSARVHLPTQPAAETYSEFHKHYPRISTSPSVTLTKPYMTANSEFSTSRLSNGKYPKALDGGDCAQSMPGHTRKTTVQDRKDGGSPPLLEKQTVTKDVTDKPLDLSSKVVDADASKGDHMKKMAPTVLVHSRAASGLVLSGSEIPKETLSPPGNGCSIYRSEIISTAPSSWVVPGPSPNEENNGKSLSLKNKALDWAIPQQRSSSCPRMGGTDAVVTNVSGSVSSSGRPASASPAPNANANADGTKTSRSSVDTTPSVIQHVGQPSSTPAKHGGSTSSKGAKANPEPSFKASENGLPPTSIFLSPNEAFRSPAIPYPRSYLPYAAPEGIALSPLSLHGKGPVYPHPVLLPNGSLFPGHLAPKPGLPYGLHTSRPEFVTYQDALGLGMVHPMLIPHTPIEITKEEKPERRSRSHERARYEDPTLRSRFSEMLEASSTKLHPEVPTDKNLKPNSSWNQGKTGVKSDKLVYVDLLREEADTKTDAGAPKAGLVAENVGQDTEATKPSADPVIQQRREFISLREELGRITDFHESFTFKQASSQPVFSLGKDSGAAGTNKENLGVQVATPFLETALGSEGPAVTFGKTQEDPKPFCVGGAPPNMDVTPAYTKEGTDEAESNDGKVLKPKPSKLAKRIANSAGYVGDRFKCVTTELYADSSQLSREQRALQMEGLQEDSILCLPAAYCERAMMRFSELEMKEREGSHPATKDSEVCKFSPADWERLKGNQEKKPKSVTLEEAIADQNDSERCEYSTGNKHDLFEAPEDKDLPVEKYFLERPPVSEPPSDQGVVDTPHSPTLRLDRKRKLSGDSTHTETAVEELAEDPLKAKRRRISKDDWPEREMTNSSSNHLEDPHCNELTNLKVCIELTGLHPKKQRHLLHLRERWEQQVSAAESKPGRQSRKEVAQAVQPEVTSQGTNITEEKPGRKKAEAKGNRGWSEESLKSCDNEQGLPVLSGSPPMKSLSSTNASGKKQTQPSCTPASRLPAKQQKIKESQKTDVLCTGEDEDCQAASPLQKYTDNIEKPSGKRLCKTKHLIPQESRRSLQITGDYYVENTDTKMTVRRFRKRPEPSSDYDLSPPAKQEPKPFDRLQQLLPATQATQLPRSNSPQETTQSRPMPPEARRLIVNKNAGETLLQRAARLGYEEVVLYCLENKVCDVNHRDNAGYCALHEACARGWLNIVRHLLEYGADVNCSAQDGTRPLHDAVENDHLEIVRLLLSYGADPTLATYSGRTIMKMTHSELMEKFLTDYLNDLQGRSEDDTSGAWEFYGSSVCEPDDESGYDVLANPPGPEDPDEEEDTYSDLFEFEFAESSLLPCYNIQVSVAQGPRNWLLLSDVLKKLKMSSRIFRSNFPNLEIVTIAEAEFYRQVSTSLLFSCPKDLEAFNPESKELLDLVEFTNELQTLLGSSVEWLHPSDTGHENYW

T1: Flag-tagged Pcgf1 (mouse) (UniProt Q8R023)
T1 sequence: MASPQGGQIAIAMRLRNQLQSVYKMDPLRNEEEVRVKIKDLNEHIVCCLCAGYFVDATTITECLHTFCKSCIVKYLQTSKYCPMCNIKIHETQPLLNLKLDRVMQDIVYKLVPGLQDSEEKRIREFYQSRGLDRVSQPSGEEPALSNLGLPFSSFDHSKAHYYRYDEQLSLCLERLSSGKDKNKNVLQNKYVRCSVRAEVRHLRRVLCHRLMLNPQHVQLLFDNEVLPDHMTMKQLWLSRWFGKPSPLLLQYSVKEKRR


Biological target: T1, Flag-tagged Pcgf1 (mouse)
Assay: co-IP; nuclear extracts of Pcgf1-/- ES cells rescued with Flag-tagged Pcgf1 incubated with anti-Flag M2 agarose beads overnight at 4 °C; washed 3 times with 20 mM Tris-HCl pH 8.0, 450 mM NaCl, 0.2 mM EDTA; bound proteins detected by Western blot; control: WT cells infected with empty vector

| Molecule | binding |
| --- | --- |
| Suz12 (from UniProt Q80U70 1-741) | no binding |
| BcoR (from UniProt Q8CGN4 1-1759) | binds |
| Rybp (protein, UniProt Q8CCI5 1-228) MTMGDKKSPTRPKRQAKPAADEGFWDCSVCTFRNSAEAFKCSICDVRKGTSTRKPRINSQLVAQQVAQQYATPPPPKKEKKEKVEKPDKEKPEKDKDISPSVTKKNTNKKTKPKSDILKDPPSEANSIQSANATTKTSETNHTSRPRLKNVDRSTAQQLAVTVGNVTVIITDFKEKTRSSSTSSSTVTSSAGSEQQNQSSSGSESTDKGSSRSSTPKGDMSAVNDESF | binds |
